Data as given in PubChem BioAssay AID1259405 (NCATS, 2018)
The deposit covers about 50,000 reagents; below is an unselected part. About 4,000 of them (8%) count as active. 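Mouse siRNA library applied to hamster cells; one well for each siRNA.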 Reagents against one gene are numbered here. Further read-outs or replicates are left out here.

Purpose: 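Knock-downs that lift recombinant protein yield in hamster ovary cells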 (primary screen)
System: Chinese hamster CHO-K1 ovary cells with stable secreted eGFP expression
Reagents: single siRNA against mouse genes, 0.8 pmol siRNA per well (2 µl of 400 nM stock)
Time to read-out: 3 days
Read-out: 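Per-well intracellular GFP measured by laser scanning cytometry, plus viability from ATP luminescence, each relative to plate median of non-targeting control wells, in %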
Direction: GFP, % of control: higher = more GFP per well, higher productivity
Hit rule: 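Called active when intracellular GFP, relative to negative control, is at or above 120%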

GFP, % of control, by target gene and reagent
Ube2o: #1 82.9 inactive; #2 105 inactive; #3 62.6 inactive
Or4b13: #1 124 active; #2 57.7 inactive; #3 61.9 inactive
Ap1b1: #1 109 inactive; #2 91.1 inactive
Slc13a3: #1 47.1 inactive; #2 50.6 inactive; #3 118 inactive
Cdkn1a: #1 69.8 inactive; #2 97 inactive
Glt28d2: #1 87.3 inactive; #2 129 active; #3 93.2 inactive
Fcer1a: #1 98.1 inactive; #2 76.5 inactive; #3 74.2 inactive
Rnf151: #1 49.6 inactive; #2 33.1 inactive; #3 70.5 inactive
Nkx1-2: #1 32.1 inactive; #2 64.9 inactive; #3 54 inactive
Skint3: #1 61.3 inactive; #2 85.3 inactive; #3 65.5 inactive
Fbxo36: #1 69 inactive; #2 118 inactive; #3 63.6 inactive
Trappc12: #1 134 active; #2 60.3 inactive; #3 79.1 inactive
Susd4: #1 103 inactive; #2 120 active; #3 165 active; #4 77.8 inactive; #5 95.6 inactive; #6 93.4 inactive
Terf1: #1 62.7 inactive; #2 66.1 inactive; #3 80.7 inactive
Fhl4: #1 65.6 inactive; #2 62.7 inactive; #3 148 active
Snx9: #1 75.9 inactive; #2 68.6 inactive
Nr2c2: #1 101 inactive; #2 65.9 inactive; #3 121 active
Jak3: #1 82.4 inactive
Abca13: #1 48.3 inactive; #2 82.6 inactive; #3 82.3 inactive
Or7g22: #1 172 active; #2 9.42 inactive; #3 65.5 inactive
Slc7a9: #1 51.9 inactive; #2 95.6 inactive; #3 78.2 inactive
Rnf150: #1 99 inactive; #2 33.2 inactive; #3 44 inactive
Itih4: #1 76.5 inactive; #2 38.7 inactive; #3 69.8 inactive
Mrps14: #1 77.7 inactive; #2 50.3 inactive; #3 131 active
Zfp521: #1 59 inactive; #2 55.3 inactive; #3 75.7 inactive
Tg: #1 25.3 inactive; #2 88.1 inactive; #3 87.4 inactive
Apol7c: #1 34.6 inactive; #2 108 inactive; #3 82.1 inactive
Kcns2: #1 79.3 inactive; #2 101 inactive
Rbm45: #1 92 inactive; #2 87.7 inactive; #3 57.7 inactive
Krtap9-3: #1 70.2 inactive; #2 83.6 inactive; #3 80.2 inactive
Vgll4: #1 72.5 inactive; #2 115 inactive; #3 77.9 inactive
Gm5142: #1 58.6 inactive; #2 79.2 inactive; #3 55.5 inactive
Cacng7: #1 37.2 inactive; #2 76.8 inactive; #3 68.2 inactive
Klk1b21: #1 132 active; #2 66.4 inactive; #3 73 inactive
Cryba4: #1 94.4 inactive; #2 109 inactive; #3 115 inactive
Slc25a37: #1 101 inactive; #2 60 inactive; #3 43 inactive
Clasp2: #1 91.4 inactive; #2 87 inactive; #3 109 inactive

8 entries from above, arranged by “GFP, % of control”, descending:
target gene	reagent no.	GFP, % of control	Outcome
Klk1b21	1	132	active
Cryba4	1	94.4	inactive
Cacng7	2	76.8	inactive
Klk1b21	3	73	inactive
Cacng7	3	68.2	inactive
Klk1b21	2	66.4	inactive
Gm5142	3	55.5	inactive
Cacng7	1	37.2	inactive
